Test results published in ChEMBL document CHEMBL5247657 (J Med Chem, 2023).

Experiment: in vitro
Conditions: human, Caco-2

C=CC(=O)N1CCC([C@@H]2CCNc3c(C(N)=O)c(-c4cc(OC)c(C)c(OC)c4)nn32)CC1
Papp A→B at 2 h, 10 µM: 5.4 ×10⁻⁶ cm/s
